Binding signal data for 42 sequences are collected here from paper PMC7819943, “Rice protein-binding microarrays: a tool to detect cis-acting elements near promoter regions in rice”.

Chains of the proteins cited; added tags and fusions are not shown.
UniProt Q0JBA9, entry or part of it: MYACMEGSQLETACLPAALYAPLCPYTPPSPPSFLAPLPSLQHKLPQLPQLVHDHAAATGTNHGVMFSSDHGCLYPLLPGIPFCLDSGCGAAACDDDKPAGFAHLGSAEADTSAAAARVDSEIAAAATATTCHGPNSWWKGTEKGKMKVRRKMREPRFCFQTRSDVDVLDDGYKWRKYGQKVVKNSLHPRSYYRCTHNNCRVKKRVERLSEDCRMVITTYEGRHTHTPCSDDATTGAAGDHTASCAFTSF

This is one part of the list.

This test has as its target OsWRKY34 (Oryza sativa, UniProt Q0JBA9 1-250). The test can be described thus: protein-binding microarray (RPBM); PBS, 2% BSA, 51.3 ng/ul salmon testes DNA, 50 uM zinc acetate, 200 nM TF, 25 C, 1 h; high values mean tight binding. The following applies: protein: recombinant; tags: N-terminal polyhistidine and DsRed monomer fusion (pET32a); label: CyDye5-dUTP incorporated in the synthesized complementary strand; 3' TTTTT single-stranded linker to array surface; dsDNA, one strand shown. In short, it runs like this: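 Binding signal here means per-feature fluorescence intensity in arbitrary units. The values were read on an Axon 4000B scanner after a custom Agilent array, double-stranded by primer extension with Cy5-dUTP, was incubated with 200 nM protein at 25 °C for 1 h in PBS with 2% BSA, salmon testes DNA and 50 µM zinc acetate, then washed. The proteins were transcription factors with an N-terminal polyhistidine tag and DsRed, expressed in E. coli BL21-CodonPlus and purified on Ni–NTA.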
Regarding “TTTTGGTTGGACTTTCCACCCTACTACTATCTCATTATGCCGGAGTCACCTAGTGCAG”, the binding signal was 9120 fluorescence intensity (a.u.).

Turning to “TCGATCGACCTCTGCTGCTGCCTCGCTGTCCTCTGCTACGCGGAGTCACCTAGTGCAG”, the binding signal is 10300 fluorescence intensity (a.u.).

Consider “CATTTGATTTTGATTTGATCGATACCATTCCGCTTTCACCCGGAGTCACCTAGTGCAG”, for which the binding signal was 10900 fluorescence intensity (a.u.).

On to “ACGCCACCGTACGCCGTTGTTTGTTGCGCAGTGCCTGCCCCGGAGTCACCTAGTGCAG”, for which the binding signal is 9840 fluorescence intensity (a.u.).

For “ATCAAAACGCTGGTCATTCTGTCTACTCCATCCGACCCCACGGAGTCACCTAGTGCAG”, the binding signal is 8500 fluorescence intensity (a.u.).

In the case of “AAGGAGAGGGGCCGCGTGGGGATGGGAAGTGCAATATTTGCGGAGTCACCTAGTGCAG”, the binding signal was 11300 fluorescence intensity (a.u.).

As for “CCGTCGCACTCAACGCTCTGTTTCACACACGCACGCACCCCGGAGTCACCTAGTGCAG”, the binding signal was 8400 fluorescence intensity (a.u.).

With “TTAATACTTACTACTTGTCTGCTTTGAGTTTTTTGTTTAACGGAGTCACCTAGTGCAG”, the binding signal is 9060 fluorescence intensity (a.u.).

Take “GATTTTGAGTTTTTGTTTGCAACGTTTGACCACTCGTCTTCGGAGTCACCTAGTGCAG”: the binding signal is 9270 fluorescence intensity (a.u.).

As for “GTCTCGCCGCGCACACGTCGCTCTCACTGGCTTAGCTGAGCGGAGTCACCTAGTGCAG”, the binding signal is 8510 fluorescence intensity (a.u.).

Take “TTGGCAATAATCACACCAATCATATCACAGTTGTCGTTGACGGAGTCACCTAGTGCAG”: the binding signal was 8730 fluorescence intensity (a.u.).

Take “CGCACATGGTCGTGGCGGCGGCGGAGGTGGTGGTGGTGCGCGGAGTCACCTAGTGCAG”: the binding signal is 8650 fluorescence intensity (a.u.).

“CGAAGGCTCATAAGGTTCCCTATTTTTTTTTTTTATCTCTCGGAGTCACCTAGTGCAG”: the binding signal was 8760 fluorescence intensity (a.u.).

Take “AACACAGGCACTTTTTTCTCGTACCGACAAATTTGATTTCCGGAGTCACCTAGTGCAG”: the binding signal is 8540 fluorescence intensity (a.u.).

For the sequence “GTATTGTGGTTAGGGTTTTATCTCGACCTGCGTCTTTTTACGGAGTCACCTAGTGCAG”, the binding signal was 13100 fluorescence intensity (a.u.).

Turning to “CCATCTTCCATCGTGCTCCCATCCAGGCGTTCGCGTCGTCCGGAGTCACCTAGTGCAG”, the binding signal was 10500 fluorescence intensity (a.u.).

As for “ATCTCCTTTTTTTTTATCCTCCCAGCTATTAAATAGCCCTCGGAGTCACCTAGTGCAG”, the binding signal was 8520 fluorescence intensity (a.u.).

“CACATGAGCTCCATAAGATCTTCCCACTTGATCTCCACATCGGAGTCACCTAGTGCAG”: the binding signal was 10100 fluorescence intensity (a.u.).

In the case of “TTTTGTCATGTTGTAGGTACTCACCGATATGTGTTTCTTCCGGAGTCACCTAGTGCAG”, the binding signal was 8390 fluorescence intensity (a.u.).

As for “CCCTCTATTTCAGTTTAACGAAACATATATATCCTCTATTCGGAGTCACCTAGTGCAG”, the binding signal was 8260 fluorescence intensity (a.u.).

Turning to “GTGTCATTCGATCTCTGCTCGGTTCTACTACTTCTGAGTTCGGAGTCACCTAGTGCAG”, the binding signal was 9140 fluorescence intensity (a.u.).

“GAGTGCCTTCGCCTATGCTGCGAGATCTTCTATTCGCTCACGGAGTCACCTAGTGCAG”: the binding signal is 8740 fluorescence intensity (a.u.).

“GCTCTGGTGTAATTGAGATCTTGCAGCACACGACTATCGTCGGAGTCACCTAGTGCAG”: the binding signal was 8120 fluorescence intensity (a.u.).

As for “CCCTCCTCCTCGCTTGCACACTTCGTACTCTCTCTAGTCCCGGAGTCACCTAGTGCAG”, the binding signal was 8520 fluorescence intensity (a.u.).

Take “ATGTTGGACAAAAAGTCAACGGCGTCATACATCAAAATGTCGGAGTCACCTAGTGCAG”: the binding signal is 13900 fluorescence intensity (a.u.).

With “GCGCCGAGGCCCGCCGCCGCCCGCCATCCGCCGTTGGCCACGGAGTCACCTAGTGCAG”, the binding signal was 8440 fluorescence intensity (a.u.).

Take “TTGGTTTTCCAATTTTGTTAACAACGCATAATCGTACTAACGGAGTCACCTAGTGCAG”: the binding signal was 8310 fluorescence intensity (a.u.).

In the case of “TCTTTACTAATTAATTCTCCCTCCATTGGCTCATCACTGACGGAGTCACCTAGTGCAG”, the binding signal is 8140 fluorescence intensity (a.u.).

Turning to “CTTTCTGTTTCATCCGATCTCTCGTCCTAATCCTCCCGATCGGAGTCACCTAGTGCAG”, the binding signal is 10100 fluorescence intensity (a.u.).

On to “GACCCATTCGTAACCTTTTCAATCACCTCATGTACCCAGTCGGAGTCACCTAGTGCAG”, for which the binding signal was 8390 fluorescence intensity (a.u.).

For the sequence “AACCTTGTTACTTTCATGCACATTTGCCAGATTTTGATTTCGGAGTCACCTAGTGCAG”, the binding signal was 9730 fluorescence intensity (a.u.).

As for “GTGGGTCCCACCATTTTTTAAGCTGACTGGACCGCCACGTCGGAGTCACCTAGTGCAG”, the binding signal was 8430 fluorescence intensity (a.u.).

For the sequence “TCGGATTCCAGCACTTGACGACTTAATCTCGATATCTTCTCGGAGTCACCTAGTGCAG”, the binding signal is 9350 fluorescence intensity (a.u.).

Regarding “CATACCCTTCTTAAATGCAAGATCCATGCCGTTGCTGTAACGGAGTCACCTAGTGCAG”, the binding signal was 8460 fluorescence intensity (a.u.).

Turning to “CCGTATTGCTGTTCTAAACGACTTCCTTTACGAGCATGGACGGAGTCACCTAGTGCAG”, the binding signal is 8270 fluorescence intensity (a.u.).

For “GAATACCTTCTGTTTTTGCCTGACTCGAAAGAGAATTGAACGGAGTCACCTAGTGCAG”, the binding signal is 8290 fluorescence intensity (a.u.).

Consider “AACAAAAAAATTCATGCTAAAACTTGAGCGTTGACCGCTTCGGAGTCACCTAGTGCAG”, for which the binding signal is 9040 fluorescence intensity (a.u.).

On to “CAACCCGTCGCCGCCCTCGCAACCCGCCGCCGCCGCCGGGCGGAGTCACCTAGTGCAG”, for which the binding signal was 8920 fluorescence intensity (a.u.).

Turning to “AACTATATATTTTGAGTTCCATTTTCTATCAACTCATTTTCGGAGTCACCTAGTGCAG”, the binding signal is 12500 fluorescence intensity (a.u.).

For “ATTTTTTTCTTGGTTACATGGTGGTTGGTGTTCCATTTTCCGGAGTCACCTAGTGCAG”, the binding signal is 14800 fluorescence intensity (a.u.).

For “GTACGGTTATGTGTGTCTGTTTTGAGATGTGAAACTTGGCCGGAGTCACCTAGTGCAG”, the binding signal is 8170 fluorescence intensity (a.u.).

For the sequence “CTCTCTTTCTTCCGGCTTCCTCTTCCTCTTCCCTCCTCGCCGGAGTCACCTAGTGCAG”, the binding signal is 8910 fluorescence intensity (a.u.).
